Tested on: focal cerebral ischemia in male Long-Evans rats
Experiment: Focal cerebral ischemia: right distal MCA cauterization with temporary bilateral CCA occlusion
Type: in vivo, rat
Details: for PaCO2 / PaO2 / pH: arterial blood 30 min after MCA occlusion; for MABP Ischemia: average during occlusion; for MABP Steady State: just prior to occlusion; for relative blood flow in the right parietal cortex during occlusion, % of the baseline: laser Doppler, control 20.8±7.7

O=C1NCCc2c(OCCCCN3CCCCC3)cccc21 [DPQ, 3,4-dihydro-5-[4-(1-piperidinyl)-butoxy]-1(2H)-isoquinolinone]
PaCO2 (5 mg/kg): 38.0 mm Hg
PaO2 (5 mg/kg): 126 ± 20 mm Hg
pH (5 mg/kg): 7.36
MABP Ischemia (5 mg/kg): 91 ± 12 mm Hg
MABP Steady State (5 mg/kg): 78 ± 5 mm Hg
relative blood flow in the right parietal cortex during occlusion, % of the baseline (5 mg/kg): 18.7±7.4%
PaCO2 (10 mg/kg): 39.3 mm Hg
PaO2 (10 mg/kg): 125 ± 16 mm Hg
pH (10 mg/kg): 7.34
MABP Ischemia (10 mg/kg): 90 ± 14 mm Hg
MABP Steady State (10 mg/kg): 80 ± 9 mm Hg
relative blood flow in the right parietal cortex during occlusion, % of the baseline (10 mg/kg): 21.4±7.7%
PaCO2 (20 mg/kg): 41.3 mm Hg
PaO2 (20 mg/kg): 122 ± 14 mm Hg
pH (20 mg/kg): 7.35
MABP Ischemia (20 mg/kg): 91 ± 12 mm Hg
MABP Steady State (20 mg/kg): 79 ± 10 mm Hg
PaCO2 (40 mg/kg): 39.5 mm Hg
PaO2 (40 mg/kg): 137 ± 17 mm Hg
pH (40 mg/kg): 7.33
MABP Ischemia (40 mg/kg): 88 ± 12 mm Hg
MABP Steady State (40 mg/kg): 78 ± 4 mm Hg
relative blood flow in the right parietal cortex during occlusion, % of the baseline (40 mg/kg): 19.3±11.2%
